PubChem BioAssay AID1259254 | NCATS – 2017

Test: 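Gene knock-downs that lead to re-replication, shown by excess G2 DNA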 (primary screen)
Cells: human HCT116 colorectal cancer cells
Reagents: single siRNA against human genes
Timing: 3 days
Measured: 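Nuclei stained with Hoechst and imaged; cell-cycle phase assigned by DNA content; G2 share scaled per plate, non-targeting siRNA 0%, GMNN siRNA 100%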
Scale: G2 robust z-score: higher = more G2 cells, more excess DNA replication
Rule for the call: 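Active siRNAs have a G2 robust z of 5 or more median absolute deviations over the median, which in these data means about 38% or higher of GMNN control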
In all, the deposit lists about 59,000 reagents; below is a random part of them. Over the whole deposit, about 1,550 (2.6%) are marked active. 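G2 share is only a proxy for re-replication; each gene was hit by three separate siRNAs, and active genes were retested.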 A number with no mark means an inactive call. Reagents against one gene are numbered here. Not all columns of the deposit are shown. Not given: the amount of reagent.

G2 robust z-score, by gene and reagent
KCNK12: #1 1.99; #2 0.331; #3 -0.976
RPSAP19: #1 0.523; #2 4.54; #3 3.09
ATP2B3: #1 -1.19; #2 -1.02; #3 1.85
NAA25: #1 -1.58; #2 -0.412; #3 -0.33
MICAL1: #1 -0.232; #2 -0.822; #3 2.51
IL17RC: #1 0.154; #2 -0.0624; #3 0.403
PSMG3: #1 -0.25; #2 -0.691; #3 -0.785
DEFA1: #1 0.183; #2 0.309; #3 0.808
NACA3P: #1 0.691; #2 0.577; #3 0.0208
SRSF2: #1 -1.79; #2 -1.16; #3 3.05
ARHGAP36: #1 -0.647; #2 -0.066; #3 -0.401
TCEANC2: #1 -1; #2 -0.781; #3 0.328
AKR1A1: #1 0.00895; #2 7.39 (active); #3 2.72
RAPSN: #1 -0.684; #2 -0.733; #3 0.849

Reagents listed so far marked active, once more:
G2 robust z-score, by gene and reagent
AKR1A1: #2 7.39 (active)

Continued.
G2 robust z-score, by gene and reagent
RAB4A: #1 4.55; #2 -0.057; #3 -0.692
CHMP4A: #1 -0.658; #2 2.65; #3 -0.937
NMRK1: #1 0.517; #2 -0.343; #3 -1.07
TMEM229A: #1 -0.726; #2 -0.994; #3 1.53
SARDH: #1 1.52; #2 2.08; #3 0.0507
RNF169: #1 4.81; #2 -0.477; #3 0.371
SERPINB5: #1 -1.07; #2 0.445; #3 3.08
NDUFA11: #1 -0.912; #2 -0.0525; #3 -0.784
RXRB: #1 0.0672; #2 -0.618; #3 0.341
